The target of this assay is connexin43 (Cx43), full-length human, stably overexpressed in LNCaP cells (human) (UniProt P17302). The experiment in a line: co-IP; 500 ug RIPA lysate of LNCaP Cx43 cells, 17 h with or without ObCM; immunoprecipitation with rabbit polyclonal anti-Cterm Cx43 (irrelevant rabbit antibody as isotype control), protein A/G-sepharose beads, 2 h at 4 °C; blot for cortactin.

By UniProt entry, the sequences of proteins in these tests, tags left out.
UniProt P17302: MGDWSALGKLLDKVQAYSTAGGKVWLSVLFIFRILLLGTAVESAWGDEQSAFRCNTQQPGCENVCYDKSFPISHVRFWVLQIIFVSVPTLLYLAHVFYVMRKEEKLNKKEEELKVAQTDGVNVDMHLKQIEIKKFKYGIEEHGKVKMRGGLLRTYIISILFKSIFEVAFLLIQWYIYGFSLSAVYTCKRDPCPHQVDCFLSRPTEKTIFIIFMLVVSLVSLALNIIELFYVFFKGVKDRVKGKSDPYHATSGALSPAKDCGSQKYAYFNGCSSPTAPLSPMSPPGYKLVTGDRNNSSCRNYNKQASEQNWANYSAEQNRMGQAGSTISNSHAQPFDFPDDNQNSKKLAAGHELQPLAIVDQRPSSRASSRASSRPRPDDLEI
UniProt Q14247: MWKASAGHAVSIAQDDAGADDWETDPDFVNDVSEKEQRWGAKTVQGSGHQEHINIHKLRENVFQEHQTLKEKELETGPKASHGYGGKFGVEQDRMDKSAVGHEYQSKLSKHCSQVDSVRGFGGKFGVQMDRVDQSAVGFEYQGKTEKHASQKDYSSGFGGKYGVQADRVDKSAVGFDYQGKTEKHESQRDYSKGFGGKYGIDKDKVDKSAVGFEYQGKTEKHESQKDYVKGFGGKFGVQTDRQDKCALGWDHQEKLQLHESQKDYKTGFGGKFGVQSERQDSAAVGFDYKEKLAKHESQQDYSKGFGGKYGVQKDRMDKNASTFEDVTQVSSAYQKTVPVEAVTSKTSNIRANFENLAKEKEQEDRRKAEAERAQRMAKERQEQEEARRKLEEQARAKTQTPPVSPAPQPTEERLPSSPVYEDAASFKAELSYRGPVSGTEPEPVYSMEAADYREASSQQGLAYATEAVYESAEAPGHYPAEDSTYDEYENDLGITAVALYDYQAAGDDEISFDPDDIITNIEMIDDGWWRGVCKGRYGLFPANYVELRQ

These are yes or no findings as the source states them, for the method shown. In cells and extracts the contact can be indirect. Some results given as binding are weak or reduced against the parent protein; the word gives no strength.

For the substance cortactin (from UniProt Q14247 1-550), the binding result is reported as “binds”.

The record behind these values is publication PMC7602984.
